The record followed here is patent publication US20060094672A1 (University of Texas, published 2006).

Sequences of proteins named here, by UniProt entry; tags and fusion partners are left off.
UniProt Q07075: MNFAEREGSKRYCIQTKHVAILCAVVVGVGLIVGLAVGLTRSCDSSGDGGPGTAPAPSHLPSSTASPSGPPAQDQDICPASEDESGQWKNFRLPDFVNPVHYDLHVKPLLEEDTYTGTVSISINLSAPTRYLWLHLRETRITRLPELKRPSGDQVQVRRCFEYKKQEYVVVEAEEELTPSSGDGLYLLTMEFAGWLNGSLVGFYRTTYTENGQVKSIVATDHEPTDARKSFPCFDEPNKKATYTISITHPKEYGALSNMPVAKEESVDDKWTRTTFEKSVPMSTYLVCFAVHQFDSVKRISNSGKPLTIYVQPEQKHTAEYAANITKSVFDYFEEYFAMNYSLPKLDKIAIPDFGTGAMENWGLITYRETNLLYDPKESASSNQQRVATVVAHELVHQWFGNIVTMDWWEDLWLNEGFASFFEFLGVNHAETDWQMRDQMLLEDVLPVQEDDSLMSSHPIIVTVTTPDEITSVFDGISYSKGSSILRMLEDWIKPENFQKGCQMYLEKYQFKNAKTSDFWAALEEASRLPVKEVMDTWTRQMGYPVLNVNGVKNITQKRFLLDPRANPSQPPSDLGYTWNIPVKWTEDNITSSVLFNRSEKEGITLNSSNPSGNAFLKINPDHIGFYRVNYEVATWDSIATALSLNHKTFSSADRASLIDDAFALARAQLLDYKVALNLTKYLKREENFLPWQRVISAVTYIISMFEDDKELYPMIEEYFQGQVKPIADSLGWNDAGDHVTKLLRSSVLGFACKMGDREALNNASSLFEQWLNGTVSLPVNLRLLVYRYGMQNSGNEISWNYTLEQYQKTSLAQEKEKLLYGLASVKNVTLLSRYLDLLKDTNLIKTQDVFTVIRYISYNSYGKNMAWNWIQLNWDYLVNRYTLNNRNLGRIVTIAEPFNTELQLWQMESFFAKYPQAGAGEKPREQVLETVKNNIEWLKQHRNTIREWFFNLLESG

This test has as its target Aminopeptidase A (APA, EC 3.4.11.7) (UniProt Q07075). Description: phage binding to APA immunocaptured on RC38-coated microwells (not shown).

These are yes or no findings as the source states them, for the method shown. Some binding calls cover weakened binding; strength is not graded here.

CYNLCIRECESICGADGACWTWCADGCSRSC [phage displaying … (SEQ ID NO:58)]: the binding result is recorded as “binds”. Consider CLGQCASICVNDC [phage displaying … (SEQ ID NO:59)], for which the binding entry was “binds”.

Turning to CPKVCPRECESNC [phage displaying … (SEQ ID NO:60)], the binding result is “binds”.
